The inconclusive results got no clear call from the source; some entries with a clear call stand among them for comparison. For some of these results: Potencies beside an inconclusive call are fits to weak or partial responses and may not hold up. Calls of active or inactive are those of the source. Rule for the calls: active = hit-call score of the fitted dose curve at least 0.9, where 1 is the maximum; inconclusive = response in the unintended direction; inactive = score below 0.9.
How the values were obtained:
[1] = biological target: human Opioid Receptor Delta 1 (Opiate D1), OPRD1 (gene 4985) (UniProt P41143); assay: NVS_GPCR_hOpiate_D1: NovaScreen (NVS) G Protein-Coupled Receptor Assay for human Opioid Receptor Delta 1 (Opiate D1) (AID 2283280)
Outline: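 Membrane preparations from CHO cells bearing the human receptor were incubated 1 h with test chemical, and bound radioligand was counted after filtration. Actives from 25 uM duplicate screening were retested in concentration-response.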

Chains of the proteins cited; added tags and fusions are not shown. Lines headed by an entry give the natural chain unless they say otherwise; changes in a name come on top.
UniProt P41143, whole entry, looked up: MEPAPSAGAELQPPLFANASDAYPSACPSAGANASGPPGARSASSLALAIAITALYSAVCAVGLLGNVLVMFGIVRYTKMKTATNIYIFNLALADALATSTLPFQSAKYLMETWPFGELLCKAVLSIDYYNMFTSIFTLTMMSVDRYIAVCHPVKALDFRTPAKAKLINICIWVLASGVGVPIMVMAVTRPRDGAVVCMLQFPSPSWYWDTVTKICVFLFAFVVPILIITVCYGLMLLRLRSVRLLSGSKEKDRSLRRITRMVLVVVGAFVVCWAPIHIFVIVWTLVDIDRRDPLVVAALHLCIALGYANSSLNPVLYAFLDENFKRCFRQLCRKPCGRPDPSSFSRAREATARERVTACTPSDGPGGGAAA
UniProt P47900: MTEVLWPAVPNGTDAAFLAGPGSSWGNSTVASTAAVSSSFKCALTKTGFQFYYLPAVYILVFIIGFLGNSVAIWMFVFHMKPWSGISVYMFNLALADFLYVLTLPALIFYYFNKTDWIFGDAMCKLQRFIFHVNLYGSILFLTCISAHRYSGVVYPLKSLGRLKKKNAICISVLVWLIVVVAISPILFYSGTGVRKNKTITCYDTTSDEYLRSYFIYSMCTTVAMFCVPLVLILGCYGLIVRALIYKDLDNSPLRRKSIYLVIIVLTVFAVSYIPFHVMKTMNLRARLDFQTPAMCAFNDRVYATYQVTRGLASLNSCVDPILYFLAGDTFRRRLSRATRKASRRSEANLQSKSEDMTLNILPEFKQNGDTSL
UniProt P41146: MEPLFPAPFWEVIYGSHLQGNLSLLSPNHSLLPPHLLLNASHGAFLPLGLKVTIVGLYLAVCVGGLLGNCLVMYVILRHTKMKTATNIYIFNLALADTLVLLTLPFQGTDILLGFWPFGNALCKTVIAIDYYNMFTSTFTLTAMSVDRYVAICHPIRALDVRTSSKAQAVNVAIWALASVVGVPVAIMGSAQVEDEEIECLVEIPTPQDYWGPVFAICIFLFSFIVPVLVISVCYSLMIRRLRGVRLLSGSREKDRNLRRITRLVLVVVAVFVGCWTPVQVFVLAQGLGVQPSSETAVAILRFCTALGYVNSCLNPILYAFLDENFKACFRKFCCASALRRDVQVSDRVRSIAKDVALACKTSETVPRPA
UniProt P21452, whole entry, looked up: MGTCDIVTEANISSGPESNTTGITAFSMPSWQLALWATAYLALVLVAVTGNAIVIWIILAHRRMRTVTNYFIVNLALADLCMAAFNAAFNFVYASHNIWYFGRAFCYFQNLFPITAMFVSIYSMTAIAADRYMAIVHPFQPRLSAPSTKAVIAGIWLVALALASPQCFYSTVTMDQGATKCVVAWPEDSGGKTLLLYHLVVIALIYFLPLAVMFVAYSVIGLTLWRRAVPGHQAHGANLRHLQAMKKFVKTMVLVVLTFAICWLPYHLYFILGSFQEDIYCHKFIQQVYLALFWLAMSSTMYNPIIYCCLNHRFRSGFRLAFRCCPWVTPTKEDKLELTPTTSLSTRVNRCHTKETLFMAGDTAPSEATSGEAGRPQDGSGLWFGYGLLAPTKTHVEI

[2] = biological target: human Purinergic Receptor P2Y, P2RY1 (gene 5028) (UniProt P47900); assay: NVS_GPCR_hPY2: NovaScreen (NVS) G Protein-Coupled Receptor Assay for human Purinergic Receptor P2Y (AID 2283281)
Outline: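 Filtration scintillation readout of radioligand displacement on U937 extract, measured 1 h post-dosing. Single 25 uM duplicate screen, then singleton concentration series to 50 uM for chemicals passing threshold; DMSO as baseline.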

[3] = biological target: human Orphanin, Opioid Related Nociceptin Receptor 1 (ORL1), OPRL1 (gene 4987) (UniProt P41146); assay: NVS_GPCR_hORL1: NovaScreen (NVS) G Protein-Coupled Receptor Assay for human Orphanin, Opioid Related Nociceptin Receptor 1 (ORL1) (AID 2283283)
Outline: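 Cell-free binding using HEK293-derived receptor protein: radioligand displacement measured by filter scintillation 1 hour after dosing. Primary testing at 25 uM in duplicate, followed by singleton concentration series up to 50 uM; DMSO served as negative control.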

[4] = biological target: human Neurokinin, NK2 Receptor, TACR2 (gene 6865) (UniProt P21452); assay: NVS_GPCR_hNK2: NovaScreen (NVS) G Protein-Coupled Receptor Assay for human Neurokinin, NK2 Receptor (AID 2283278);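 note: actives reduce bound radioligand signal relative to DMSO baseline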
Outline: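 Radioligand binding on membranes from CHO cells expressing receptor, filter-based scintillation read 4 h after dosing. Initial duplicate screen at 25 uM, actives in concentration series; loss of signal versus DMSO.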

For O=C(Nc1ccc2[nH]ccc2c1)c1cc2cc(F)ccc2n1Cc1cccc(F)c1, the AC50 [1] was inconclusive: 25 µM.

In the case of Oc1cc(Cl)ccc1Oc1ccc(Cl)cc1Cl, the AC50 [2] was inconclusive: 0.22 µM.

In the case of CCCCCOC(=O)c1ccccc1C(=O)OCCCCC, the outcome [3] was “inactive”.

For Cc1c(COC(=O)[C@@H]2[C@H](/C=C(\Cl)C(F)(F)F)C2(C)C)cccc1-c1ccccc1, the outcome [4] was “inactive”.

In the case of CC(C)(c1ccccc1)c1ccc(O)cc1, the AC50 [4] was active: 25 µM.

For COc1ccc(C(c2ccc(OC)cc2)C(Cl)(Cl)Cl)cc1, the outcome [1] was “inactive”.

For CC(C)Oc1cc(-n2nc(C(C)(C)C)oc2=O)c(Cl)cc1Cl, the AC50 [1] was inconclusive: 0.458 µM.

— PubChem BioAssay (EPA / NIEHS)
